Assay: general procedure: Fmoc solid-phase peptide synthesis; Rink Amide MBHA resin (substitution=0.72 mmol/g, Novabiochem); DIC/HOBt
Conditions: whole synthesis, analytical HPLC, scale of the general procedure 0.0675 mmol

| Substance | final HPLC purity [%] |
| --- | --- |
| H-Apc-D-1Nal-D-1Nal-Phe-Apc-NH2 | 95 |
| H-Apc-D-1Nal-D-1Nal-Phe-Lys-NH2 | 99 |
| H-Apc-D-1Nal-D-2Nal-Phe-Apc-NH2 | 96 |
| H-Apc-D-1Nal-D-Trp-2Thi-Apc-NH2 | 97 |
| H-Apc-D-1Nal-D-Trp-2Thi-Lys-NH2 | 99 |
| H-Apc-D-1Nal-D-Trp-2Thi-NH2 | 98 |
| H-Apc-D-1Nal-D-Trp-Phe-Apc-NH2 | 98 |
| H-Apc-D-1Nal-D-Trp-Phe-Lys-NH2 | 98 |
| H-Apc-D-1Nal-D-Trp-Phe-NH2 | 99 |
| H-Apc-D-1Nal-D-Trp-Taz-Apc-NH2 | 99 |
| H-Apc-D-1Nal-D-Trp-Taz-Lys-NH2 | 99 |
| H-Apc-D-1Nal-D-Trp-Taz-NH2 | 99 |
| H-Apc-D-2Nal-D-Trp-2Thi-NH2 | 95 |
| H-Apc-D-2Nal-D-Trp-Phe-Lys-NH2 | 98 |
| H-Apc-D-2Nal-D-Trp-Taz-NH2 | 97 |
| H-Apc-D-Bal-D-1Nal-Phe-Apc-NH2 | 96 |
| H-Apc-D-Bal-D-1Nal-Phe-Lys-NH2 | 99 |
| H-Apc-D-Bal-D-2Nal-Phe-Apc-NH2 | 94 |
| H-Apc-D-Bal-D-2Nal-Phe-Lys-NH2 | 98 |
| H-Apc-D-Bal-D-Trp-2Thi-Apc-NH2 | 98 |
| H-Apc-D-Bal-D-Trp-2Thi-Lys-NH2 | 98 |
| H-Apc-D-Bal-D-Trp-2Thi-NH2 | 97 |

| Substance | final HPLC purity [%] |
| --- | --- |
| H-Apc-D-Bal-D-Trp-Phe-Apc-NH2 | 98 |
| H-Apc-D-Bal-D-Trp-Phe-Lys-NH2 | 99 |
| H-Apc-D-Bal-D-Trp-Phe-NH2 | 99 |
| H-Apc-D-Bal-D-Trp-Taz-Apc-NH2 | 98 |
| H-Apc-D-Bal-D-Trp-Taz-Lys-NH2 | 99 |
| H-Apc-D-Bal-D-Trp-Taz-NH2 | 99 |
| H-Inp-D-1Nal-D-Trp-2Thi-Apc-NH2 | 97 |
| H-Inp-D-1Nal-D-Trp-2Thi-Lys-NH2 | 99 |
| H-Inp-D-1Nal-D-Trp-2Thi-NH2 | 98 |
| H-Inp-D-1Nal-D-Trp-3Pal-Lys-NH2 | 96 |
| H-Inp-D-1Nal-D-Trp-3Pal-NH2 | 98 |
| H-Inp-D-1Nal-D-Trp-Phe-Apc-NH2 | 98 |
| H-Inp-D-1Nal-D-Trp-Taz-Apc-NH2 | 98 |
| H-Inp-D-1Nal-D-Trp-Taz-Lys-NH2 | 99 |
| H-Inp-D-2Nal-D-Bal-Phe-NH2 | 99 |
| H-Inp-D-2Nal-D-Bpa-Phe-Lys-NH2 | 99 |
| H-Inp-D-2Nal-D-Dip-Phe-NH2 | 99 |
| H-Inp-D-2Nal-D-Trp-2Thi-NH2 | 99 |
| H-Inp-D-2Nal-D-Trp-3Pal-Lys-NH2 | 97 |
| H-Inp-D-2Nal-D-Trp-3Pal-NH2 | 99 |
| H-Inp-D-2Nal-D-Trp-4Pal-Lys-NH2 | 99 |
| H-Inp-D-2Nal-D-Trp-4Pal-NH2 | 98 |

| Substance | final HPLC purity [%] |
| --- | --- |
| H-Inp-D-2Nal-D-Trp-Orn-Lys-NH2 | 98 |
| H-Inp-D-2Nal-D-Trp-Pff-Lys-NH2 | 98 |
| H-Inp-D-2Nal-D-Trp-Pff-NH2 | 99 |
| H-Inp-D-2Nal-D-Trp-Phe-Apc-NH2 | 98 |
| H-Inp-D-2Nal-D-Trp-Taz-Lys-NH2 | 97 |
| H-Inp-D-2Nal-D-Trp-Taz-NH2 | 98 |
| H-Inp-D-2Nal-D-Trp-Thi-Lys-NH2 | 98 |
| H-Inp-D-2Nal-D-Trp-Thr(Bzl)-Lys-NH2 | 98 |
| H-Inp-D-2Nal-D-Trp-Thr(Bzl)-NH2 | 99 |
| H-Inp-D-Bal-D-Trp-2Thi-Apc-NH2 | 97 |
| H-Inp-D-Bal-D-Trp-2Thi-Lys-NH2 | 99 |
| H-Inp-D-Bal-D-Trp-Phe-Apc-NH2 | 97 |
| H-Inp-D-Bal-D-Trp-Phe-Lys-NH2 | 99 |
| H-Inp-D-Bal-D-Trp-Phe-NH2 | 97 |
| H-Inp-D-Bal-D-Trp-Taz-Apc-NH2 | 99 |
| H-Inp-D-Bal-D-Trp-Taz-Lys-NH2 | 99 |
| H-Inp-D-Bip-D-Trp-Phe-Lys-NH2 | 99 |
| H-Inp-D-Bip-D-Trp-Phe-NH2 | 99 |
| H-Inp-D-Bpa-D-Trp-Phe-Lys-NH2 | 95 |
| H-Inp-D-Dip-D-Trp-Phe-Lys-NH2 | 98 |
| H-Inp-D-Dip-D-Trp-Phe-NH2 | 98 |
